# Data published in patent US4965343 (dated 1990).
# How the values were obtained:
# [1] = general procedure: Boc solid-phase peptide synthesis; Boc-amino acid-OCH2-PAM resin (phenylacetamidomethyl polystyrene); BOP; settings: whole synthesis
# [2] = general procedure: Boc solid-phase peptide synthesis; Boc-N-methyl-Phe-PAM resin; BOP; settings: whole synthesis, scale 100 mg sulfated peptide resin (0.0268 mmole)
# [3] = overall, scale of the general procedure 100 mg peptide-resin (0.0268 mmole of peptide)
substance,measurement,setting,value
Ac-Tyr(SO3 H)-Met-Gly-Trp-Met-Thr(SO3 H)-N-methyl-Phe-NH2,isolated mass,[1],2.8 mg
same,crude yield,[1]; [3],57%
same,isolated yield,[1]; [3],20%
same,crude mass,[2],19.3 mg
